Results deposited as PubChem BioAssay AID504791 (Drosophila RNAi Screening Center, 2011).
In all, the deposit lists about 23,000 reagents; below is a random part of those that have a named target and a result. Of all reagents, 199 (0.86%) are marked active. 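Plate-scaled ratios behind the calls are not deposited; printed light signals are raw; many rows marked increased or decreased are still called inactive.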 Names joined by + are all predicted targets of the reagent. Not given: the direction of the score.

Aim: 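Genes of the fly required for silencing by miRNA, siRNA or endo-siRNA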 (primary screen)
System: Drosophila S2-derived reporter cells
Reagents: long dsRNA against Drosophila genes, about 150-250 ng dsRNA per well (siRNA assay); about 80-120 ng (miRNA assay)
Duration: about 5 days (siRNA assay); about 4 days (miRNA assay)
Challenge: copper sulfate induction of reporters: 25 µM (siRNA assay); 200 mM stated (miRNA assay), 1-2 days before reading
Read-out: 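Dual luciferase assay: Renilla to firefly signal ratio in each well, scaled to the mean ratio of its plate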
Call rule: 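First-pass picks had plate-scaled ratios over 1.5 for the siRNA assay, over 1.6 for the miRNA assay, or under 0.6; two distinct dsRNAs had to score alike on retest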

no.	Target gene	dsRNA	miRNA reporter change	stable assay Renilla, run 1 (luminescence)	stable assay firefly, run 1 (luminescence)	call
1	Rel	DRSC16819		9092	4.65e5	inactive
2	CG1575	DRSC18069		8050	4.90e5	inactive
3	jus	DRSC14861	reporter ratio lowered past the hit cutoff	5214	2.37e5	inactive
4	jus	DRSC14862		6351	4.66e5	inactive
5	jus	DRSC23018		4459	3.30e5	inactive
6	CG16879 (retired record)	DRSC01918		5647	4.69e5	inactive
7	CG16879 (retired record)	DRSC22849		5963	5.12e5	inactive
8	Klp10A	DRSC19601		8586	5.83e5	inactive
9	CG13409	DRSC14585		7095	3.79e5	inactive
10	fd3F (retired record) + Crg-1	DRSC17283		8159	4.78e5	inactive
11	Pdk1	DRSC08682	reporter ratio lowered past the hit cutoff	5131	3.90e5	inactive
12	Pdk1	DRSC27069	reporter ratio lowered past the hit cutoff			inactive
13	CCT6	DRSC20095		7550	3.07e5	inactive
14	Acp63F	DRSC08137		6432	5.17e5	inactive

Part of the list above in another layout:
Target gene | dsRNA | miRNA reporter change | stable assay Renilla, run 1 (luminescence) | stable assay firefly, run 1 (luminescence) | call
CG16879 (retired record) | DRSC01918 | – | 5647 | 4.69e5 | inactive
CG16879 (retired record) | DRSC22849 | – | 5963 | 5.12e5 | inactive
Klp10A | DRSC19601 | – | 8586 | 5.83e5 | inactive

Additional results:
no.	Target gene	dsRNA	miRNA reporter change	stable assay Renilla, run 1 (luminescence)	stable assay firefly, run 1 (luminescence)	call
15	ms(3)76Cc	DRSC11071		7608	4.23e5	inactive
16	ms(3)76Cc	DRSC21630		8735	4.26e5	inactive
17	ash1	DRSC11325		7227	3.31e5	inactive
18	CG42749	DRSC18091		6143	3.23e5	inactive
19	CG42749	DRSC18092		5839	2.61e5	inactive
20	corto	DRSC12375		6840	4.18e5	inactive
21	corto	DRSC22279		9299	5.16e5	inactive
22	corto	DRSC22988		5638	3.99e5	inactive
23	CG15820	DRSC08480		11133	4.15e5	inactive
24	CG15820	DRSC27847	reporter ratio lowered past the hit cutoff			inactive
25	ari-2	DRSC04672		7328	5.11e5	inactive
26	CG3517	DRSC15492		7122	2.95e5	inactive
27	GM130	DRSC04617		7683	6.25e5	inactive
28	Oda	DRSC07626		6480	4.03e5	inactive
29	Zpr1	DRSC18432		7296	4.48e5	inactive
30	CG15128	DRSC06550		5003	2.44e5	inactive
31	CG14354	DRSC14817		7247	3.06e5	inactive
32	TMEM216 + CG11760	DRSC14375		8858	6.44e5	inactive
33	Shmt	DRSC18264		5147	2.73e5	inactive
34	His3.3A	DRSC03343		7867	4.87e5	inactive
